Data: patent US20220235136A1, “METHODS AND COMPOSITIONS FOR TREATING A DISEASE OR DISORDER” (YALE UNIVERSITY, priority 2019, published 2022)
No constants are given. Whether binding was seen depends on the method and setting. Some results given as binding are weak or reduced against the parent protein; the word gives no strength. For some assays here: Tags and fused reporters may be left off the sequences shown.

Amino acid sequences for entries named in this document (tags omitted). A change or cut given only in a name is not applied to a line headed by its entry.
UniProt Q9NPY3: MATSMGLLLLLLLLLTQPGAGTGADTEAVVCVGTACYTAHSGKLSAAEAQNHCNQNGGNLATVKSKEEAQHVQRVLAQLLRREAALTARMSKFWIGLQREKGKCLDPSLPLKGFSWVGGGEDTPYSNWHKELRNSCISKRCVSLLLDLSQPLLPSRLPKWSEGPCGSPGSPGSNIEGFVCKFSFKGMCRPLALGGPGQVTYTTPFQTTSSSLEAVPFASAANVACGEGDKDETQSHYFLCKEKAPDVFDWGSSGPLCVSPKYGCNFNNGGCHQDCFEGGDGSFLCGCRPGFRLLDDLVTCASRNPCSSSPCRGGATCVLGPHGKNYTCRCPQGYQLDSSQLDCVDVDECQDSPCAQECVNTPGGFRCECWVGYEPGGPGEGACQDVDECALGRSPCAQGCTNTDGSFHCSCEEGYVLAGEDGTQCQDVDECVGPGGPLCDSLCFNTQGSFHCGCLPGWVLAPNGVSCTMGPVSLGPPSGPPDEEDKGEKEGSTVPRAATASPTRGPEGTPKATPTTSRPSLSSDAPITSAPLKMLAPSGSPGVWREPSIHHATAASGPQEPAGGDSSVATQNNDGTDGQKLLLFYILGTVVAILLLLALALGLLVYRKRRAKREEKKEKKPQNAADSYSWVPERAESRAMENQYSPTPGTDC

Legend:
[1] = target: T1, IGFBP7-His protein (Homo sapiens (Human)) (UniProt Q16270); assay: ELISA: IGFBP7-His coated wells, CD93-His, then MMRN2-Ig (FIG. 28C)
T1 sequence: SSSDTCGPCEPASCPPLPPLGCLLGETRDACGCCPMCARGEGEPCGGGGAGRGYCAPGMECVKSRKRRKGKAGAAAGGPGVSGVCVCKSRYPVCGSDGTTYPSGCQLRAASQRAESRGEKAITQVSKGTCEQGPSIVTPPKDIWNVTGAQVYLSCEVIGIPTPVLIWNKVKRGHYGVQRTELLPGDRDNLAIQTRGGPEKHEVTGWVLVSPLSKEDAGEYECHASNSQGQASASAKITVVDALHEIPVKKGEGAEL

[2] = target: T2, human IGFBP7 (expression construct in the GSRA library; endogenous in HUVEC lysate; exogenous IGFBP7 protein) (human) (UniProt Q16270); assay: human genome-scale receptor array (GSRA): CD93-Ig on cells transfected with the IGFBP7 construct, image of the well
T2 sequence: T1 sequence

[3] = target: T2, human IGFBP7 (expression construct in the GSRA library; endogenous in HUVEC lysate; exogenous IGFBP7 protein) (human); assay: human genome-scale receptor array (GSRA) screened with CD93-Ig (FIG. 4A)
[4] = target: T2, human IGFBP7 (expression construct in the GSRA library; endogenous in HUVEC lysate; exogenous IGFBP7 protein) (human); assay: human genome-scale receptor array (GSRA), FIG. 4A
[5] = target: T3, IGFBP7 protein (R&D Systems), labelled with a His-Tag Labeling Kit for MST (human) (UniProt Q16270); assay: microscale thermophoresis (MST), CD93 titrated against 10 nM labelled IGFBP7
T3 sequence (chain, RED-tris-NTA fluorescent dye bound to the His tag): T1 sequence

CD93-His protein (from UniProt Q9NPY3 24-580) (receptor)
binding [1]: binds

CD93-Ig (probe of the human genome-scale receptor array) (from UniProt Q9NPY3 22-580) (Fc fusion)
binding [2]: binds
binding [3]: binds
binding [4]: binds

recombinant human CD93 protein (R&D Systems) (from UniProt Q9NPY3 24-580) (receptor)
binding [5]: binds
